Experimental data as given in the supplement of paper PMC12889115.
Some of the results follow. Values are raw readings; no control value is given beside them.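 In the initial screen, polymyxin B was used at a concentration that permeabilizes Salmonella's outer membrane but not its inner membrane. Maximum growth was set by DMSO wells with or without polymyxin B. Since plates varied, data were ranked per plate, and compounds giving the lowest OD600 advanced as hits.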

Test system: Salmonella enterica serovar Typhimurium SL1344
Assay: bacterial growth OD600 after 18 h with compound and polymyxin B; higher = more bacterial growth (less inhibition)
Details: 50 µM, Mueller-Hinton broth

Structure (SMILES) | bacterial growth OD600 (polymyxin B 1 µg/mL) | bacterial growth OD600 (polymyxin B 0.75 µg/mL)
Cc1nc2ccccc2n1Cc1cc(C(=O)N2CCN(c3cnccn3)CC2)n[nH]1 | 0.871 | –
CCOC(=O)C1(CC2CC2)CCN(C(=O)CSc2nc3cc(C)ccc3[nH]2)CC1 | 0.027 | –
CO[C@H]1[C@H](NC(=O)Cc2cccs2)c2ccccc2C12CCN(CC#Cc1ccccc1)CC2 | – | 0.756
COc1cccc(CN2CCC(C(Cc3ccccc3F)N(C)C(=O)c3ccoc3C)CC2)c1OC (centres undefined) | – | 0.724
Cc1nc(CN(C)CC2(O)CCCN(CC3CCCCC3)C2=O)cs1 (centres undefined) | 1.01 | –
Cc1ccc(CN(C)C(=O)CC2C(=O)NCCN2Cc2cccc(F)c2)o1 (centres undefined) | 0.919 | –
Cc1c(-c2ccc(F)cc2)[nH]c2ccc(CNC(=O)CCN3CCCO3)cc12 | 0.733 | –
O=C(c1csnn1)N1CCc2ccc(NC(=O)C3(c4ccccc4)CC3)cc2C1 | 1.23 | –
COc1ccc(CN2CCN(Cc3ccccc3F)CC2CCO)cc1C (centres undefined) | 0.917 | –
O=C(CCc1ccncc1)N1CCCC(CCc2cccc(F)c2)C1 (centres undefined) | – | 0.006
Cc1ncc2c(c1CNC(=O)c1ccsc1)CCN(C(=O)c1ccc(N3CCCCC3)cc1)C2 | – | 0.732
COc1cc(C(=O)NCC(C)(C)CN(C)C)ccc1OC1CCN(C(C)=O)CC1 | 1.25 | –
Cc1nc(CN(C)C(=O)C2CCC(=O)N(CCc3ccccn3)C2)cs1 (centres undefined) | 1.28 | –
COC(C(=O)NCc1c(C)ncc2c1CCN(C(=O)c1cc3ccccc3o1)C2)c1ccccc1 (centres undefined) | – | 0.775
CCN1CCCCC1C(=O)NCc1nc(-c2ccccc2NS(=O)(=O)Cc2ccccc2)oc1C (centres undefined) | – | 0.735
COc1ccc(-c2nc(CN(Cc3ccccc3)CC3CC3)c(C)o2)cc1OC | 0.757 | –
COC(=O)C1CCN(Cc2cn(-c3ccccc3)nc2-c2cccc(OC)c2)CC1 | 0.868 | –
CCOc1ccccc1CN1CCCC(CCC(=O)NCc2ccc(OC)cc2OC)C1 (centres undefined) | – | 0.847
COc1ccccc1OCC(=O)N1CCC2(CCCN(CCc3ccccc3)C2)C1 (centres undefined) | 0.012 | –

Reprinted at random: 2 records from the list.
Structure (SMILES) | bacterial growth OD600 (polymyxin B 1 µg/mL) | bacterial growth OD600 (polymyxin B 0.75 µg/mL)
O=C(c1csnn1)N1CCc2ccc(NC(=O)C3(c4ccccc4)CC3)cc2C1 | 1.23 | –
Cc1c(-c2ccc(F)cc2)[nH]c2ccc(CNC(=O)CCN3CCCO3)cc12 | 0.733 | –
